In publication PMC4689212:
Results are given in words; binding and its absence hold for the method and conditions named. In cells and extracts the contact can be indirect. Some binding calls cover weakened binding; strength is not graded here. One block for each substance: values may come before it.

Sequences of proteins named here, by UniProt entry; tags and fusion partners are left off. Residues count along the entry.
UniProt P37173, residues 23-567: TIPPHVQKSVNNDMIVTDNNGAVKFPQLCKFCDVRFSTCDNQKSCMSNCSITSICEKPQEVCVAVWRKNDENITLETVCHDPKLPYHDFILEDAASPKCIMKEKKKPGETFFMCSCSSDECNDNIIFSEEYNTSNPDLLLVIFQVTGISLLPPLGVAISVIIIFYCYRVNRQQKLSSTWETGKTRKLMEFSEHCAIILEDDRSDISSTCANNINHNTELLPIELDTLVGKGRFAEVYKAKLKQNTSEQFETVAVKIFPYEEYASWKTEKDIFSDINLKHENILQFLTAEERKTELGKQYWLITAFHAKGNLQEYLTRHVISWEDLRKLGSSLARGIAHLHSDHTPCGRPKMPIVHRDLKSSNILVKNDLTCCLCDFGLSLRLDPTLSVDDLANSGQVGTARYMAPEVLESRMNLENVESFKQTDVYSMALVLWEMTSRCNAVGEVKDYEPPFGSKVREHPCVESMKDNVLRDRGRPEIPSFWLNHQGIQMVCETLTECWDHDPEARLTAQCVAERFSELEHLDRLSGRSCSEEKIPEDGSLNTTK
UniProt P26012, residues 43-769: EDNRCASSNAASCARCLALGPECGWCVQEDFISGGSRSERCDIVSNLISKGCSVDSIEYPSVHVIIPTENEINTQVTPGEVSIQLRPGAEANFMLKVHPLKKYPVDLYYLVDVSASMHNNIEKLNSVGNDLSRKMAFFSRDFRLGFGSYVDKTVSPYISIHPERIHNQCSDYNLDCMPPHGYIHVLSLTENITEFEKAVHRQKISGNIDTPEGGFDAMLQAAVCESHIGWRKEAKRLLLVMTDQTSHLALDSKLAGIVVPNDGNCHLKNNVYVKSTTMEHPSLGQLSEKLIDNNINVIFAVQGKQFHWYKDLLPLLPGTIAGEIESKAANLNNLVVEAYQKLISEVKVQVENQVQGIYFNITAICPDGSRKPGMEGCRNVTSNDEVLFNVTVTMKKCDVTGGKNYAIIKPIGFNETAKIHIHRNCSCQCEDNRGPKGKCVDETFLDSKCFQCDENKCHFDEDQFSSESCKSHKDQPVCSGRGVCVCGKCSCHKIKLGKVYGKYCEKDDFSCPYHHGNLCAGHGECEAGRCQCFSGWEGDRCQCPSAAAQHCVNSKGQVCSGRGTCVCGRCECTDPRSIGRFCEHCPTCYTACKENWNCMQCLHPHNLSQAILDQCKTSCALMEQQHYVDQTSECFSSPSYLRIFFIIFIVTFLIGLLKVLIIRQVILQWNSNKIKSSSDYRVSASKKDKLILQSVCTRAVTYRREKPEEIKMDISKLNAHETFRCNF

Assays:
[1] = target: T1, β8 integrin (Itgb8), endogenous in mouse brain (mouse (endogenous in neonatal brain)) (UniProt Q0VBD0); test: co-IP; endogenous proteins in detergent-soluble lysates of wild-type neonatal mouse brains; β8-/- brain lysates as control
T1 sequence: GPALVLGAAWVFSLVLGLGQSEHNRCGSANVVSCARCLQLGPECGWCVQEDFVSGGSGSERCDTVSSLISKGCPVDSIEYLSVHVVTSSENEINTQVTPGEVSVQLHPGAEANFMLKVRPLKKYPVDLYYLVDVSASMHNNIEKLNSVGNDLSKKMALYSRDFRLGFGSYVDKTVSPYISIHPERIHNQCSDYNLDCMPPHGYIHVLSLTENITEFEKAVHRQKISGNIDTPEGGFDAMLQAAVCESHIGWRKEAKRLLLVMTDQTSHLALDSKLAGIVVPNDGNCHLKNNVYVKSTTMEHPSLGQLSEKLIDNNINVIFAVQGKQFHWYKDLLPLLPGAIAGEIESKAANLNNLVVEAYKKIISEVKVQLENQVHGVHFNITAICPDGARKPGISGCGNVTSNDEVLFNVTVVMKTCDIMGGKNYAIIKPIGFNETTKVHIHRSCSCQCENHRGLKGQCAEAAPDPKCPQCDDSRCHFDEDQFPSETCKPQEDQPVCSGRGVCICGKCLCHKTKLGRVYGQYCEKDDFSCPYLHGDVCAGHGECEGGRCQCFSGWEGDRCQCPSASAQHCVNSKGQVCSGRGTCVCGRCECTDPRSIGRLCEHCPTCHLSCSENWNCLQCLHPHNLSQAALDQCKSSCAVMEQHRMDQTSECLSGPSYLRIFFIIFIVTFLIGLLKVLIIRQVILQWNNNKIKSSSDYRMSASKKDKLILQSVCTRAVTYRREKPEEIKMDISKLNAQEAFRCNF

TGFβR2 = TGFβR2 (UniProt P37173); test: co-IP; HEK-293T cells transfected with Nrp1 (wild type or deletion constructs) and TGFβR2; protein complexes detected (Fig. S8E-G, legend not shown)
[2] = target: V5-tagged human β8 integrin (human) (UniProt P26012); test: co-IP; HEK-293 cells co-transfected with Nrp1 (full-length rat or deletion constructs) and V5-tagged human β8 integrin; detergent-soluble lysates (RIPA) immunoprecipitated with anti-V5, immunoblotted with anti-Nrp1

binding [1]: binds
Substance: Neuropilin 1 (Nrp1), endogenous in mouse brain (from UniProt P97333 22-923) (receptor)

binding (TGFβR2): binds
Substance: Nrp1 (transfected, in the experiment with TGFβR2) (from UniProt Q9QWJ9 22-922) (receptor)

binding [2]: binds
Substance: full-length rat Nrp1 (from UniProt Q9QWJ9 22-922) (receptor)
